Construct, isoform or probe ends are uncertain for at least one entry. For some of these results: Negatives hold for the conditions tested. Where a protein sequence is shown, tags need not be part of it.
Key:
[1] = test system: T1, HBD (SHBD), hybrid-binding domain of RNase H1 (Thermotoga maritima); experiment: EMSA; conditions: discrete complex, smear at higher concentration; 150 mM NaCl, pH 7.4, room temperature; purified recombinant protein; label: 32P at RNA 5'-end; DNA:RNA hybrid
T1 sequence (limits assumed): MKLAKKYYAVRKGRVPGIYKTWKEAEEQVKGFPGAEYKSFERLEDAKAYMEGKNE

[2] = test system: T2, THBD (three linked HBDs, Cys-free linkers) (Thermotoga maritima); experiment: EMSA; conditions: purified recombinant protein
T2 sequence: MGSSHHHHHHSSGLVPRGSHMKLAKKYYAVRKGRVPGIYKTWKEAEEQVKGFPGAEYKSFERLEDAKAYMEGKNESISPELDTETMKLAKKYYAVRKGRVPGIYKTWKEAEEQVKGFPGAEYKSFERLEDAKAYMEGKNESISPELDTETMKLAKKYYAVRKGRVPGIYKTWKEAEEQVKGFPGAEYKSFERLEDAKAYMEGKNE

[3] = test system: T3, DHBD (two linked HBDs, Cys-free SIS linker) (Thermotoga maritima); experiment: EMSA; conditions: two complexes; affinity over 10-fold above SHBD; 150 mM NaCl, pH 7.4; purified recombinant protein; label: 32P at RNA 5'-end; DNA:RNA hybrid
T3 sequence: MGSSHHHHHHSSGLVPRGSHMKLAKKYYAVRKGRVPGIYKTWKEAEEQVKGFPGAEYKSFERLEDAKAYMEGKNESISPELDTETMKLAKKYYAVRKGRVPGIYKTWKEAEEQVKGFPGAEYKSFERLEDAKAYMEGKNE

[4] = test system: T1, HBD (SHBD), hybrid-binding domain of RNase H1 (Thermotoga maritima); experiment: SPR; conditions: steady state, ±180; 8.29 uM in Example 9 [p372]; kinetics too fast to fit; pH 7.4, 100 mM NaCl, 25 C; purified recombinant protein; label: 5'-biotin; DNA:RNA hybrid
[5] = test system: T2, THBD (three linked HBDs, Cys-free linkers) (Thermotoga maritima); experiment: SPR; conditions: steady state, ±0.006; kinetic model 0.19 ± 0.02 nM; 0.37 nM in Example 9; pH 7.4, 100 mM NaCl, 25 C; purified recombinant protein; label: 5'-biotin; DNA:RNA hybrid
[6] = test system: T3, DHBD (two linked HBDs, Cys-free SIS linker) (Thermotoga maritima); experiment: SPR; conditions: steady state, ±1; kinetic model 12 ± 2 nM; 29 nM steady state in Example 9 [p373]; pH 7.4, 100 mM NaCl, 25 C; purified recombinant protein; label: 5'-biotin; DNA:RNA hybrid

GAAAUACGGUCCGAAACGUUG / CAACGTTTCGGACCGTATTTC [21 bp RNA-DNA hybrid]
binding result [1]: binds
binding result ([2]; two complexes, at least 10-fold above DHBD, 150 mM NaCl, pH 7.4, label: 32P at RNA 5'-end, DNA:RNA hybrid): binds
binding result [3]: binds

GAAAUACGGUCCGAAACGUUG [21 nt ssRNA]
binding result ([2]; THBD does not bind 21 nt ssRNA, label: 5'-32P, variant of 21 bp RNA-DNA hybrid): no binding

TCAACGTTTCGGACCGTATTTCTTTTGAAAUACGGUCCGAAACGUUG [21 bp RNA-DNA hybrid hairpin (47 nt chimeric)]
Kd [4]: 7970 nM
Kd [5]: 0.38 nM
Kd [6]: 20 nM

Source: patent publication US20230175040
